This assay in a line: qHTS Assay for Lipid Storage Modulators in Drosophila S3 Cells.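 As to cell number change: cells counted by Cell Tracker Red CMTPX staining in the red channel.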 The settings on record: BODIPY lipid droplet fluorescence, 18-24 h; for cell number change: measured here: cell count max response, cells fed with added oleic acid. In a few lines:
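Drosophila S3 cells got compounds at several concentrations plus oleic acid (400 uM solution). Laser-scanning cytometry with 488 nm excitation read lipid droplets at 500-530 nm and cells at 575-640 nm. Percent activity was relative to 20 uM Triacsin C.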
(In general: Quantitative high-throughput screening tests each substance at several concentrations.)

Setting [1] is: measured here: cell number channel AC50, cells fed with added oleic acid.
[2] abbreviates: measured here: lipid fluorescence (Fed channel) AC50, cells fed with added oleic acid.

This is one part of the list. The main result of the screen is listed elsewhere. These columns were measured beside it and carry no call. Most of these compounds were active or inconclusive in the main read-out, so they are no random draw. Words in brackets tell the shape of the fitted curve; partial curves, single points and poor fits give uncertain potencies.

What is called AC50 is the midpoint of the concentration-response curve, whichever way the signal moves. The low end stands for activity at low concentration, the high end for activity only at high concentration. Turning to `COCCCn1c(SCC(=O)Nc2ccc(NC(=O)c3ccco3)c(OC)c2)nc2ccccc2c1=O`, the cell number change is -78.8%. The concentration at half-maximal activity (AC50) under setting [1] was 29.1 µM [falling, single point]. In addition, the AC50 under setting [2] is 29.1 µM [falling, single point].

Turning to `C=CCNc1nc(N)c(C(=C(C#N)C#N)c2ccc(Br)cc2)s1`, the cell number change is -3.65%. The AC50 under setting [2] is 2.31 µM [falling, partial curve, poor fit].

For the compound `CSc1nc2ccc(NC(=O)c3c(-c4ccccc4)noc3C)cc2s1`, the cell number change is -2.06%. Moreover, under setting [2], the AC50 is 0.00461 µM [falling, full curve, poor fit].

Consider `COC(=O)C1(C(=O)OC)Sc2ccccc2C1=O`, for which the cell number change is -31.2%. Besides, under setting [1], the AC50 is 29.1 µM [falling, single point]. In addition, the AC50 under setting [2] was 29.1 µM [falling, single point].

For `COc1ccccc1-c1cc(-c2ccccc2)nc(SCC(=O)O)c1C#N`, the cell number change was -11.1%. Moreover, the AC50 under setting [2] was 20.6 µM [rising, partial curve, poor fit].

As for `COc1ccccc1OCCNC(=O)c1cc(C2CC2)nc2c1cnn2C(C)C`, the cell number change is -13.2%. Moreover, the AC50 under setting [2] is 1.84 µM [falling, full curve].

As for `O=C(CSc1nnc2scc(-c3ccccc3)n12)NCC1CCCO1` (stereo not drawn), the cell number change turned out to be 5.87%.

For `Cc1ccc(NC(=O)CSc2nc(C)c(C)c(C)n2)c([N+](=O)[O-])c1`, the cell number change worked out at 30.6%. Under setting [1], the AC50 is 4.61 µM [rising, partial curve]. In addition, the AC50 under setting [2] was 2.59 µM [rising, single point].

`COCCNC(=S)N/N=C(\C)c1ccc(Cl)c(Cl)c1`: the cell number change was found to be 3.91%. Further, the AC50 under setting [2] was 6.51 µM [rising, single point].

In the case of `O=C(CC(=O)N1CCN(c2ccccn2)CC1)Nc1ccc2nc3n(c(=O)c2c1)CCCCC3`, the cell number change amounted to 43.3%. The AC50 under setting [1] is 25.9 µM [rising, single point]. Under setting [2], the AC50 was 3.26 µM [rising, partial curve].

With `COc1cccc(C2=NOC(C(=O)NCc3cccs3)C2)c1` (stereo not drawn), the cell number change is 22.2%. Also, the AC50 under setting [2] is 18.4 µM [rising, partial curve, poor fit].

Regarding `CCOc1ccccc1N/C=C(\C#N)c1nc2ccccc2n1C`, the cell number change worked out at 28.6%. The AC50 under setting [2] is 3.66 µM [rising, partial curve].

Turning to `Cc1ccc(S(=O)(=O)NCCN2CCOCC2)s1`, the cell number change is -9.68%. Under setting [1], the AC50 is 4.11 µM [rising, partial curve, poor fit]. Further, under setting [2], the AC50 is 4.11 µM [rising, partial curve].

Consider `Cn1c(SCC(=O)O)nnc1-c1ccc2ncccc2c1`, for which the cell number change turned out to be 17.4%. Also, under setting [1], the AC50 was 0.092 µM [falling, full curve, poor fit]. Further, the half-maximal activity concentration (AC50) under setting [2] was 6.51 µM [falling, single point].

`CCOC(=O)C(NC(C)=O)(Nc1ccc(S(N)(=O)=O)cc1)C(F)(F)F` (stereo not drawn): the AC50 under setting [1] was 2.31 µM [falling, partial curve, poor fit].

Turning to `CC(=O)c1ccc(S(=O)(=O)Oc2ccc(-c3ccc(C(=O)O)cc3)cc2)cc1`, the cell number change stood at 20.7%. Moreover, the AC50 under setting [2] was 2.91 µM [rising, single point].

As to `O=C(Nc1ccccc1)N1CCC(O)(c2cccc(C(F)(F)F)c2)CC1`, the cell number change was -26.1%.

In the case of `COc1ccc(C(=O)Nc2ccccc2)cc1NC(=O)c1cccs1`, the cell number change is -16.2%. The AC50 under setting [2] is 29.1 µM [falling, single point].

As for `CCn1cc(C(=O)N2CCCC2)c(=O)c2cc(S(=O)(=O)N3CCOCC3)ccc21`, the cell number change is -80.3%. Also, under setting [1], the AC50 is 29.1 µM [falling, single point].

Regarding `CC(C)CC(C(=O)Nc1oc(-c2ccco2)c(-c2ccco2)c1C#N)N1C(=O)c2ccccc2C1=O` (stereo not drawn), the cell number change was -2.72%. Also, the AC50 under setting [2] was 0.13 µM [falling, full curve, poor fit].

Regarding `CNC(=O)NC(=O)COc1c(F)c(F)cc(F)c1F`, the cell number change was -24.6%. The AC50 under setting [1] was 6.51 µM [rising, partial curve, poor fit]. Further, the AC50 under setting [2] is 25.9 µM [falling, single point].

For the compound `CC1(c2ccccc2)NC(=S)N2C1NC(=S)N2c1ccccc1` (stereo not drawn), the cell number change amounted to 52.8%. In addition, under setting [1], the AC50 is 7.31 µM [rising, partial curve]. For the same compound, the AC50 under setting [2] was 9.2 µM [rising, partial curve].

Take `C/C(N)=C(/C#N)C(=O)COC(=O)CNS(=O)(=O)c1ccc(C)cc1`: the cell number change was -18.1%. The AC50 under setting [1] was 0.731 µM [falling, full curve, poor fit].

Take `COC(=O)c1cc(NC(=O)/C=C/c2ccc3c(c2)OCO3)cc(C(=O)OC)c1`: the cell number change was -13.3%. Under setting [2], the AC50 is 4.11 µM [falling, partial curve].

For the compound `COC(=O)c1ccccc1-n1c(CCC(=O)O)ccc1-c1ccccc1`, the cell number change is -18.1%.

In the case of `COc1ccccc1-c1nc(-c2ccc(C)nc2OC)no1`, the cell number change stood at 68.6%. Moreover, under setting [1], the AC50 was 0.517 µM [rising, full curve, poor fit]. Further, under setting [2], the concentration at half-maximal activity (AC50) was 0.651 µM [rising, full curve].

`S=c1[nH]nc(-c2ccc(Cl)cc2)n1CC1CCCO1` (stereo not drawn): the cell number change stood at 2.52%.

As for `CC(C)C(=O)NC(=S)Nc1nnn(C)n1`, the cell number change came out at 41.9%. In addition, the AC50 under setting [1] was 16.4 µM [rising, partial curve, poor fit]. In addition, the AC50 under setting [2] is 29.1 µM [rising, single point].

For the compound `Cc1cccc(C)c1NC(=O)CN(C)C(=O)c1ccccc1SCC(=O)N1CCCC1`, under setting [1], the AC50 was 0.82 µM [falling, single point].

Take `O=C(O)Cc1ccc(NC(=S)Nc2ccc(Br)cc2Cl)cc1`: the cell number change was 17.2%. Besides, the AC50 under setting [2] is 7.31 µM [falling, single point].

Take `CCOc1ccccc1NC(=O)CN1C(=O)COc2ccc(Cl)cc21`: the cell number change is 84.1%. The AC50 under setting [1] is 18.4 µM [rising, single point]. The AC50 under setting [2] is 18.4 µM [rising, single point].

On to `CCOC(=O)c1cnc2ccc(OC)cc2c1Nc1ccc(N2CCN(C)CC2)cc1`, for which the cell number change was -19%. For the same compound, the AC50 under setting [2] was 8.2 µM [falling, partial curve].

For `COc1ccc(N(CC(=O)NC2CCCC2)C(=O)Cn2nnc(-c3ccc(OC)c(OC)c3)n2)c(OC)c1`, the cell number change was -14.3%.

As for `Cc1sc(-c2ccccn2)nc1OC(=O)c1ccc(F)cc1F`, the cell number change is -14.1%.

On to `Cc1ccc(SCC(=O)n2nc(C)cc2C)cc1`, for which the cell number change is 102%. Under setting [1], the AC50 was 18.4 µM [rising, single point]. In addition, the AC50 under setting [2] is 6.51 µM [falling, single point].

On to `CC(C)C1N=C(c2ccc3c(c2)OCO3)CC(c2ccccc2O)N1` (stereo not drawn), for which the cell number change was -14.8%. The AC50 under setting [2] is 0.731 µM [rising, full curve].

Take `CCOC(=O)C1=C(C)NC(C)=C(C(=O)OCC)C1/C=C/c1ccccc1`: the cell number change came to 25.7%.

Turning to `COc1ccc(Nc2nc(-c3ccc(OC)cc3)c(CCC(=O)O)s2)cc1`, the cell number change was 24%. Under setting [2], the AC50 was 0.92 µM [falling, single point].

Consider `CCOCCCNCC(=O)NC1(C)C2CCC(C2)C1(C)C` (stereo not drawn), for which the AC50 under setting [2] was 29.1 µM [falling, single point].

As to `Cc1cc(NC(=O)CCC(=O)N(c2ccc(F)cc2)C(C(=O)NC2CCCC2)c2ccccc2)no1` (stereo not drawn), the cell number change turned out to be 7.39%. Also, the AC50 under setting [2] is 29.1 µM [rising, single point].

For the compound `CC(NC(=O)C1CCN(S(=O)(=O)c2cccc3cccnc23)CC1)c1ccccc1` (stereo not drawn), the AC50 under setting [2] was 29.1 µM [falling, single point].

Consider `Cn1c(=O)oc2cc(S(=O)(=O)N3CCCC3)ccc21`, for which the cell number change was -70.4%. Further, the AC50 under setting [2] was 1.64 µM [falling, full curve].

For `O=C(O)CNC(=S)N(Cc1ccccc1)Cc1cccs1`, the cell number change was -11.6%. The AC50 under setting [2] is 1.84 µM [falling, partial curve].

Take `O=S(=O)(c1ccccc1)N1CCN(C(=S)Nc2ccc(Br)cc2)CC1`: the cell number change was -8.67%. In addition, under setting [2], the AC50 was 29.1 µM [falling, single point].

With `COc1ccccc1N1CCN(C(=O)Cn2nnc(-c3ccncc3)n2)CC1`, the cell number change was determined as 11.8%. Further, the AC50 under setting [2] is 5.8 µM [rising, partial curve].

Regarding `O=C(Nc1ccc(S(=O)(=O)N2CCCCC2c2cccnc2)cc1)c1c(F)cccc1F` (stereo not drawn), the cell number change was 26%.

In the case of `O=C(N[C@@H](Cc1c[nH]c2ccccc12)C(=O)O)C1CCN(S(=O)(=O)c2ccc(Cl)cc2)CC1`, the cell number change is -12.4%. Further, the AC50 under setting [2] is 0.00461 µM [falling, full curve, poor fit].

As to `O=C(Cc1cccc2ccccc12)Nc1ccc(OC(F)F)c(Cl)c1`, the cell number change came to 4.15%. Besides, under setting [2], the AC50 is 3.26 µM [rising, partial curve, poor fit].

Take `FC(F)(F)c1cnc(Oc2cccc3ccccc23)c(Cl)c1`: the cell number change was determined as 20%. For the same compound, the AC50 under setting [2] was 29.1 µM [rising, single point].

`COCCNS(=O)(=O)c1ccc2c(c1)n(C)c(=O)n2C`: the cell number change is 12.5%. Under setting [2], the AC50 is 0.291 µM [falling, full curve, poor fit].

Regarding `COCCN(C(=O)CCC(=O)Nc1nccs1)C(C(=O)NCCC(C)C)c1ccc(OC)cc1` (stereo not drawn), the cell number change is 6.76%. The AC50 under setting [2] was 6.51 µM [falling, single point].

`CCOc1ccc(C(CC(=O)O)NC(=O)C23CC4CC(CC(C4)C2)C3)cc1OC` (stereo not drawn): the cell number change came out at 11.2%. Moreover, under setting [2], the AC50 is 1.16 µM [rising, partial curve, poor fit].

As to `O=S(=O)(c1ccc(OCC(O)CN2CCC(Cc3ccccc3)CC2)cc1)N1CCOCC1` (stereo not drawn), the cell number change was -73.4%. For the same compound, the AC50 under setting [1] was 10.3 µM [falling, partial curve]. In addition, the AC50 under setting [2] is 14.6 µM [falling, partial curve].

In the case of `Cc1nc2ccccn2c1C(=O)NNC(=S)Nc1ccc(Cl)cc1`, the cell number change was -42%. The AC50 under setting [1] was 29.1 µM [falling, single point]. The AC50 under setting [2] is 1.64 µM [rising, partial curve, poor fit].

With `Cc1ccc(-c2cc(=O)[nH][nH]2)c(C)c1`, the cell number change was -5.1%.

Take `CCn1c(SCC(=O)Nc2ccccc2-c2ccccc2)nnc1-c1ccoc1C`: the cell number change is -1.43%. Besides, the AC50 under setting [2] was 5.17 µM [falling, single point].

Consider `CCCOC(=O)Cc1c(O)c2ccccc2[nH]c1=O`, for which the cell number change turned out to be 31.2%. For the same compound, under setting [1], the AC50 is 0.164 µM [rising, full curve, poor fit].

As to `O=C1Nc2ccc(Br)cc2C1=C1CCCCC1`, the cell number change is -31%. Further, the AC50 under setting [1] was 29.1 µM [falling, single point]. Further, the AC50 under setting [2] was 29.1 µM [falling, single point].

The values above are taken from PubChem BioAssay AID2685 (National Center for Advancing Translational Sciences (NCATS), 2010).
